Experimental findings from patent US6605620B1, “Cyclic amine compounds and pharmaceutical composition containing the same” (Kowa Co., Ltd., priority 2001, dated 2003) are described below.

For the assay, the system named is U937 cells adhered to HUVEC stimulated by TNFα. In words: Inhibitory effect on cell adhesion (U937 adhesion to TNFα-stimulated HUVEC). As to conditions: Homo sapiens, fluorescence (PKH2) readout. Format: cell-based. As to the method:
The test was conducted by reference to the method by Ross et al. (J. Biol. Chem., 267 8537-8543 (1992)). More specifically, after human umbilical venous endothelial cells (HUVEC) were cultured on a 48-well plate to confluent growth, TNFα was added thereto. Upon elapsed time of 5 hours after the addition, U937, which was a human monocytic/histocytic cell fluorescence-labeled with PKH2 (product of Sigma-Aldrich Co., Ltd.), was added in a proportion of 1×10^6 cells per well. After the plate was left at rest at room temperature for 1 hour, unadhered U937 was washed out and lysed in 1% Triton X-100 to measure a remaining fluorescence intensity (excitation wavelength: 480 nm; measuring wavelength: 530 nm). HUVEC and U937 were cultured in EGM-2 (product of Sanko Junyaku K. K.) and 10% FCS-containing RPMI1640, respectively. […] The inhibitory activity was calculated out as IC50 value after inhibitory ratio at each concentration of test compounds was determined. The inhibitory ratio was calculated according to the equation […], wherein A is the number of U937 cells adhered to HUVEC stimulated by TNFα when no test agent was added, B is the number of U937 cells adhered to HUVEC not stimulated by TNFα when no test agent was added, and C is the number of U937 cells adhered to HUVEC stimulated by TNFα when the test agent was added. […]

Where a name gives a salt, the structure may show the parent alone.

By IC50 is commonly meant the concentration that gives 50% inhibition. Read a low IC50 as greater potency in that assay. `CCN(Cc1ccnc(-c2cc(OC)c(OC)c(OC)c2)c1)C1CCN(Cc2ccnc(-c3cc(OC)c(OC)c(OC)c3)c2)CC1` [Example 40, 4-[N-Ethyl-N-[[2-(3,4,5-trimethoxyphenyl)pyridin-4-yl]methyl]amino]-1-[[2-(3,4,5-trimethoxyphenyl)pyridin-4-yl]methyl]piperidine Tetrahydrochloride]: inhibition was half-maximal at 0.2 µM (IC50).
